The whole screen tested about 330,000 compounds, of which about 7,700 (2.3%) were called active. The inconclusive results got no clear call from the source; some entries with a clear call stand among them for comparison. The call rests on the fitted dose curve; in most records, active means well fitted inhibition curve with a large enough effect; inconclusive means small, poorly fitted or top-dose-only effect, or effect the other way; inactive means flat fitted curve, though single readings scatter. Potencies beside an inconclusive call are fits to weak or partial responses and may not hold up.
Assay: qHTS screen for small molecules that inhibit ELG1-dependent DNA repair in human embryonic kidney (HEK293T) cells expressing luciferase-tagged ELG1; further: nearly all actives have a fitted effect of over 55% in size
Conditions: HEK293T ELG1-luciferase reporter, luminescence, 16 h, DNA damage induced by 5-fluorouridine; activity change, negative = inhibition: at 46.1 µM (top of the series)
In short: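 In this reporter screen, reduction of luminescence relative to DMSO vehicle indicated activity. Compounds and 5-fluorouridine were added together to 2,000 cells per well, incubated for 16 hr at 37 °C, then developed with ONE-Glo.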
On the % scale 0 is the no-effect control and ±100 the full control effect; potency means the concentration at half of the fitted maximal effect.

SMILES	Potency	activity change, negative = inhibition
O=C(OCn1ncc(Cl)c(Cl)c1=O)c1ccc(F)cc1	inconclusive: 12.6 µM [inhibitor, partial curve]	–
O=C(COC(=O)c1cccnc1Cl)c1ccc(OC(F)F)cc1	–	inactive: 2.81%
Cc1c(C(=O)OCC(=O)NC(=O)NC2CCCCC2)cccc1[N+](=O)[O-]	–	inactive: -6.12%
Cc1ccc(-c2[nH]ncc2C(=O)c2ccccc2C)c(O)c1	inconclusive: 18.3 µM [activator, single point]	–
COc1cc(OC)c(OC)cc1CCC(C)NCCC(c1ccccc1)c1ccccc1 (stereo not drawn)	inconclusive: 18.3 µM [inhibitor, single point]	–
CC(C)CCNC(=O)c1ccc(OC2CCN(S(=O)(=O)N(C)C)CC2)cc1	inconclusive: 16.4 µM [inhibitor, single point]	–
CCCn1nnc(NC(=O)c2ccc(Cl)cc2Cl)n1	inconclusive: 14.6 µM [activator, partial curve]	–
COc1ccc(Cl)cc1NC(=O)CSc1nc(-c2ccccc2)cc(=O)[nH]1	–	inactive: -0.864%
COc1cccc(C(=O)NCC2CCCN2S(=O)(=O)c2ccccc2)c1 (stereo not drawn)	–	inactive: -15.7%
CCn1nc(C)c(CNC(=O)c2ccc(OC3CCN(Cc4ccccn4)CC3)cc2)c1C	inconclusive: 1.46 µM [inhibitor, partial curve, poor fit]	–
c1ccc2c(c1)oc1c(NCCCN3CCOCC3)ncnc12	–	inactive: 13.5%
CCOc1ccccc1NS(=O)(=O)c1ccc2[nH]c(=O)ccc2c1	inconclusive: 29.1 µM [activator, single point]	–
C[n+]1c2n(c3ccccc31)N=C(c1ccc(-c3ccccc3)cc1)CS2	inconclusive: 16.4 µM [inhibitor, single point]	–
CC(C)Oc1ccc(C(=O)Nc2cccc(S(=O)(=O)N3CCCC3)c2)cc1	active: 23.1 µM	–
CC(=O)Nc1ccn(-c2ccccc2)n1	inconclusive: 16.4 µM [activator, single point]	–
CCOC(=O)C1=C(C)NC2=C(C(=O)CCC2)C1c1coc2ccccc2c1=O (stereo not drawn)	–	inactive: 9.67%
Cc1ccc(NC(=O)Cn2c(=O)n(CCC(=O)NC3CCN(Cc4ccccc4)CC3)c(=O)c3ccccc32)cc1	inconclusive: 29.1 µM [activator, single point]	–
C[C@@H](NC(=O)c1nc[nH]c1C(=O)NCC(=O)OC(C)(C)C)c1ccccc1	inconclusive: 0.146 µM [inhibitor, single point]	–
Cc1ccc(-n2c(C)nn(Cc3ccc([N+](=O)[O-])cc3)c2=O)cc1	inconclusive: 29.1 µM [inhibitor, single point]	–
COc1ncccc1-c1nnn(-c2ccc(Cl)nc2)n1	inconclusive: 29.1 µM [activator, single point]	–
CCCCc1ccc(-c2ccc(Br)cc2O)nc1	inconclusive: 10.3 µM [activator, partial curve]	–
COc1ccc(CCn2c(=O)[nH]c3cc(C(=O)N4CCN(c5ccccc5)CC4)ccc3c2=O)cc1OC	inconclusive: 6.51 µM [inhibitor, single point]	–

Look-ups from the entries so far:
Under Potency, CC(=O)Nc1ccn(-c2ccccc2)n1 is entered as inconclusive: 16.4 µM [activator, single point]
Under Potency, CC(C)CCNC(=O)c1ccc(OC2CCN(S(=O)(=O)N(C)C)CC2)cc1 is entered as inconclusive: 16.4 µM [inhibitor, single point]

The list continues.

SMILES	Potency	activity change, negative = inhibition
CN(CCC#N)C(=O)CC(Cc1ccccc1)C1CCOC(C)(C)C1 (stereo not drawn)	inconclusive: 6.51 µM [inhibitor, partial curve, poor fit]	–
CCOC(=O)C1=C(O)/C(=C/c2ccc(-c3ccccc3C(=O)O)o2)SC1=Nc1ccc(C)cc1	–	inactive: -8.33%
O=C(Nc1ccc2c(c1)OCCO2)N1CCN(Cc2ccccc2)CC1	inconclusive: 18.3 µM [activator, single point]	–
Cc1ccc(-c2csc3nc(SCC(=O)Nc4ccc(Cl)c(C(=O)O)c4)[nH]c(=O)c23)cc1	inconclusive: 23.1 µM [activator, single point]	–
O=C(/C=C/c1ccc(Cl)cc1)Nc1nccs1	inconclusive: 1.64 µM [activator, partial curve]	–
CN(C(=O)COC(=O)COc1ccc2ccccc2c1)c1c(N)n(Cc2ccccc2)c(=O)[nH]c1=O	inconclusive: 6.51 µM [activator, single point]	–
CCOC(=O)c1[nH]cc(-c2ccccc2)c1N1CCOCC1	inconclusive: 3.66 µM [inhibitor, partial curve, poor fit]	–
CCn1c(SCC(=O)N2CCCc3ccccc32)nc2cccnc21	inconclusive: 15.8 µM [inhibitor, single point]	–
CCOC(=O)c1ccc(NC(=S)N2CCSC2c2ccc(Br)cc2)cc1 (stereo not drawn)	–	inactive: 15.9%
Cc1ccc(NC(=O)N/C=C/c2ccco2)cc1C	inconclusive: 1.16 µM [inhibitor, single point]	–
COc1ccc(-c2nc(SC)n(S(=O)(=O)c3ccccc3)n2)cc1	inconclusive: 18.4 µM [activator, partial curve]	–
Cc1nc2ccccc2cc1OCc1ccc(F)cc1	inconclusive: 5.8 µM [inhibitor, single point]	–
Cc1cc(C)n2nc(SCC(=O)c3ccccc3)nc2n1	inconclusive: 23.1 µM [activator, single point]	–
O=C(CN1CCN(S(=O)(=O)/C=C/c2ccccc2)CC1)Nc1ccc(N2CCOCC2)cc1	–	inactive: 12.1%
Cc1ccc(NC(=O)c2ccccc2)cc1OC(=O)c1ccccc1	inconclusive: 20.6 µM [activator, single point]	–
Cc1ccc(C(=O)OCC(=O)N2C(C)CCCC2C)cc1S(=O)(=O)N1CCOCC1 (stereo not drawn)	inconclusive: 23.1 µM [activator, single point]	–
Cc1ccc(C2(C)NC(=O)N(CC(=O)Nc3ccccc3N3CCCC3)C2=O)cc1 (stereo not drawn)	–	inactive: 2.55%
O=c1[nH]c2ccccc2c(O)c1SCCO	–	inactive: 2.01%
Cn1ncc2c(N3CCOCC3)ncnc21	inconclusive: 20.6 µM [activator, partial curve, poor fit]	–
COc1ccc(-c2cc(C(=O)N/N=C(\C)c3ccco3)c3ccccc3n2)c(OC)c1	inconclusive: 20.6 µM [inhibitor, partial curve, poor fit]	–
COc1ccc(-c2csc(N3CCC(C(N)=O)(N4CCCCC4)CC3)n2)cc1	inconclusive: 32.6 µM [inhibitor, single point]	–

Reference: PubChem BioAssay AID504467 (National Center for Advancing Translational Sciences (NCATS), 2011)
